Results published in article doi:10.1101/2022.10.13.512146.

Target: T1, APEX2-IκBα fusion, P25963
T1 chain: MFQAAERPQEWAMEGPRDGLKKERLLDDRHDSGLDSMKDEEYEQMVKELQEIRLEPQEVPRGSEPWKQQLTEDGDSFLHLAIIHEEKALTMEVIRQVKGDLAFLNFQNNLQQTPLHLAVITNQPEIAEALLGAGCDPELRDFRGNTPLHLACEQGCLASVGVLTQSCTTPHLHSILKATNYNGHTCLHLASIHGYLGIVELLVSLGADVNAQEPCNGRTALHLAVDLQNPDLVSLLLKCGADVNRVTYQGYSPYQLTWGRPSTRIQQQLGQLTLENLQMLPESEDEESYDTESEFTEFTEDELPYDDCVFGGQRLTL
Assay: proximity labelling
Settings: remark: other sources report otherwise

B1: Rel C, Q04864 1-619 (protein)
chain: MASGAYNPYIEIIEQPRQRGMRFRYKCEGRSAGSIPGEHSTDNNRTYPSIQIMNYYGKGKVRITLVTKNDPYKPHPHDLVGKDCRDGYYEAEFGQERRPLFFQNLGIRCVKKKEVKEAIITRIKAGINPFNVPEKQLNDIEDCDLNVVRLCFQVFLPDEHGNLTTALPPVVSNPIYDNRAPNTAELRICRVNKNCGSVRGGDEIFLLCDKVQKDDIEVRFVLNDWEAKGIFSQADVHRQVAIVFKTPPYCKAITEPVTVKMQLRRPSDQEVSESMDFRYLPDEKDTYGNKAKKQKTTLLFQKLCQDHVETGFRHVDQDGLELLTSGDPPTLASQSAGITVNFPERPRPGLLGSIGEGRYFKKEPNLFSHDAVVREMPTGVSSQAESYYPSPGPISSGLSHHASMAPLPSSSWSSVAHPTPRSGNTNPLSSFSTRTLPSNSQGIPPFLRIPVGNDLNASNACIYNNADDIVGMEASSMPSADLYGISDPNMLSNCSVNMMTTSSDSMGETDNPRLLSMNLENPSCNSVLDPRDLRQLHQMSSSSMSAGANSNTTVFVSQSDAFEGSDFSCADNSMINESGPSNSTNPNSHGFVQDSQYSGIGSMQNEQLSDSFPYEFFQV
B1 was tested, and the binding was “binds”.

No constants are given. Whether binding was seen depends on the method and setting. Binding seen in cells or lysates may run through a third protein. These calls come from enrichment with a bait or labelling near it, and not all partners need be listed. Sequences can lack the tags named with a protein.
